The values that follow come from publication doi:10.1101/2022.02.23.481653.

Amino acid sequences for entries named in this document (tags omitted). A change or cut given only in a name is not applied to a line headed by its entry. Chains listed by the source or under a name are the forms on record and can include a tag or linker.
SEPT9_i3NCmut-msfGFP (Q9UHD8-2, form named): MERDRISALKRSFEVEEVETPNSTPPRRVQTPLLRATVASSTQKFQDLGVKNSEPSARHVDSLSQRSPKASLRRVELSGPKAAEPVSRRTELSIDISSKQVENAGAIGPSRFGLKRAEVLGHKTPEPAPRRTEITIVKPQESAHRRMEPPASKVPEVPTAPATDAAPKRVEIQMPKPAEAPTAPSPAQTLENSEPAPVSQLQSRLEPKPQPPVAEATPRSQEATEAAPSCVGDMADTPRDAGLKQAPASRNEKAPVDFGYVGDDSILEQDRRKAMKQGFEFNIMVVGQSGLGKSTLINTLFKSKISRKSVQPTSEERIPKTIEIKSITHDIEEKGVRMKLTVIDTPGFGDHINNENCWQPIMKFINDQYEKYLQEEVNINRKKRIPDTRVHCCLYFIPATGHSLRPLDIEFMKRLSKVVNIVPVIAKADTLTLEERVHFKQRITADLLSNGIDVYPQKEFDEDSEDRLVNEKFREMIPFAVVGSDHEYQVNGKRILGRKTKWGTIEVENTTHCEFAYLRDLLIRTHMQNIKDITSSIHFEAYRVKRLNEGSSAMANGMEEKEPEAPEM

Results are given in words; binding and its absence hold for the method and conditions named. Some binding calls cover weakened binding; strength is not graded here. For some of these results: Where a sequence is shown, tags or fusion partners need not be part of it.

The target in test [1] is T1, recombinant human septin hexamers with wild-type SEPT2-msfGFP (SEPT2-SEPT6-SEPT7-SEPT7-SEPT6-SEPT2) (human) (UniProt Q15019).
T1 sequence 1: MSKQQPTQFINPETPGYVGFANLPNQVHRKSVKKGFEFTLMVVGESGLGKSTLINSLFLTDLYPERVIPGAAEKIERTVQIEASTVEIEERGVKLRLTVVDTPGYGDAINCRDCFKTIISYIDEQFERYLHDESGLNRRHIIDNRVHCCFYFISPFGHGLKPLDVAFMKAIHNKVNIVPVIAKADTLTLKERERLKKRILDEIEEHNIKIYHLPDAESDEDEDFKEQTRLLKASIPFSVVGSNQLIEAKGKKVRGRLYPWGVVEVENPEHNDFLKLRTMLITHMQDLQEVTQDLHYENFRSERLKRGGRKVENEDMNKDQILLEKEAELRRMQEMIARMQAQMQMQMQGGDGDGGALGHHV
T1 sequence 2: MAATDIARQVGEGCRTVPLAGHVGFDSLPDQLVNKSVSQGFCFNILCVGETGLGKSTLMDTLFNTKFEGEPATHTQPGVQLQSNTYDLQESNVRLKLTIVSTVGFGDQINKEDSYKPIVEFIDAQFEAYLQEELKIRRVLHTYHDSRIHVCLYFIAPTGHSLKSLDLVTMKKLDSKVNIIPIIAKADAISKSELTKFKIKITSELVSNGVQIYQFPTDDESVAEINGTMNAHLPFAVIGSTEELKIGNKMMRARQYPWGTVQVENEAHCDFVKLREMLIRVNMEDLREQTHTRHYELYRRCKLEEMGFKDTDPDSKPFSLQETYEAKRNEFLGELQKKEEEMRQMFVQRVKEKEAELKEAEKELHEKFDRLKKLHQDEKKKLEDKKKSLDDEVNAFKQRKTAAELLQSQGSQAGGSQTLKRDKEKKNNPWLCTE
T1 sequence 3: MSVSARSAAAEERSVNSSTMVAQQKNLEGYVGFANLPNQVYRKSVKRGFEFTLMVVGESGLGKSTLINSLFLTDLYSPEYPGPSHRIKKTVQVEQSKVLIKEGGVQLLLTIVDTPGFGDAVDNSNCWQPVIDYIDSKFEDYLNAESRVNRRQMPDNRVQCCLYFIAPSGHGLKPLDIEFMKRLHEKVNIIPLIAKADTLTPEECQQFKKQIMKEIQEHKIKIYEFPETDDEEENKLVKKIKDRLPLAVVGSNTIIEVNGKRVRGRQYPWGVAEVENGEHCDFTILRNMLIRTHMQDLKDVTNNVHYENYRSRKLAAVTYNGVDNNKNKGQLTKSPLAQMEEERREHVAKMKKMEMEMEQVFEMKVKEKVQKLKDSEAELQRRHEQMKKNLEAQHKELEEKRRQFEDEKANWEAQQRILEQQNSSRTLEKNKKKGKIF
Description: fluorescence microscopy of reconstituted septin filaments.

Test [2] addresses recombinant human septin octamers-9_i3 with SEPT2NCmut-msfGFP (SEPT2 F20D, V27D) (human) (UniProt Q15019). Described as above.
Test [3] concerns the target recombinant human septin octamers-9_i3 with wild-type SEPT2-msfGFP (SEPT2-SEPT6-SEPT7-SEPT9-SEPT9-SEPT7-SEPT6-SEPT2) (human) (UniProt Q15019). Described as above.
The target in test [4] is SEPT9_i3NCmut-msfGFP (human) (UniProt Q9UHD8). Description: native gel or EMSA. A general note: A gel shift assay detects complexes by their altered migration in electrophoresis.

Turning to “recombinant human septin octamers-9_i3 with SEPT2-sfCherry2 (from UniProt Q15019;Q14141;Q16181;Q9UHD8-2) (complex)”, the binding entry in test [1] is given as “binds”.

For “recombinant human septin octamers-9_i3 with SEPT2NCmut-msfGFP (SEPT2 F20D, V27D) (from UniProt Q15019;Q14141;Q16181;Q9UHD8-2) (complex)”, the binding result in test [2] is reported as “no binding”.

With “recombinant human septin octamers-9_i3 with wild-type SEPT2-msfGFP (SEPT2-SEPT6-SEPT7-SEPT9-SEPT9-SEPT7-SEPT6-SEPT2) (from UniProt Q15019;Q14141;Q16181;Q9UHD8-2) (complex)”, in test [3], the binding result is recorded as “binds”.

As for “SEPT9_i3NCmut-msfGFP (from UniProt Q9UHD8-2 1-568)”, the binding result in test [4] is “no binding”.
